Reference: PubChem BioAssay AID1471 (National Center for Advancing Translational Sciences (NCATS), 2008)
Among all 230,000 compounds or so, about 310 (0.13%) were called active. Inconclusive results, whose numbers are uncertain, are shown with a selection of clear calls. The call rests on the fitted dose curve; in most records, active means well fitted activation curve with a large enough effect; inconclusive means small, poorly fitted or top-dose-only effect; inactive means no such curve, though single readings can be large or run the other way. A potency beside an inconclusive call is a rough fit, not a confirmed value.

Assay: qHTS Multiplex Assay to Identify Dual Action Probes in a Cell Model of Huntington: Cytoprotection (ATP); further: nearly all actives have a fitted effect of over 45% in size;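 on cytoprotection (ATP increase): toxic huntingtin expression switched on by the ecdysone agonist tebufenozide; % of control where 0% means no effect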
Settings: PC12 HTT-Q103 induced, ATP luminescence, 40 h; cytoprotection (ATP increase): at 56.4 µM (top of the series) unless noted
Outline: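 Compounds were screened for protection of PC12 cells against cell death after tebufenozide induction (100 nM final) of mutant Huntingtin exon 1 (Q103) fused to GFP.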
Potency means the concentration at half of the fitted maximal effect.

SMILES | cytoprotection (ATP increase) | Potency
O=C(O/N=C\c1ccc(N2CCCCC2)c([N+](=O)[O-])c1)c1ccc(Cl)cc1Cl | inactive: 19.4% | 
Cc1ccc(S(=O)(=O)N2CCCC(C(=O)N(Cc3cccs3)C3CC3)C2)cc1 (configuration not stated) | inactive: 12.3% [at 10 µM] | 
O=c1n(-c2ccccc2)c(=O)n2n1CC[C@H]1/C(=N\OCc3ccccc3)[C@H]3O[C@@H]3[C@@H](O)[C@@H]12 |  | inconclusive: 0.0158 µM [activator, single point]
O=C(CCCOc1ccc(Cl)cc1Cl)N/N=C/c1ccccc1O |  | inconclusive: 1.26 µM [activator, single point]
CC1(C)[C@@H](OC(=O)CCC(=O)O)CC[C@@]2(C)[C@H]1CC[C@@]1(C)[C@H]2C(=O)C=C2[C@H]3C[C@](C)(C(=O)O)CC[C@]3(C)CC[C@@]21C |  | inconclusive: 14.1 µM [activator, single point]
CC1CC(C)(C)NC(=S)N1CC(=O)N1CCN(Cc2ccccc2)CC1 (configuration not stated) |  | inconclusive: 7.08 µM [activator, full curve, poor fit]
O=C(O)c1ccccc1NSc1ccccc1[N+](=O)[O-] |  | inconclusive: 1.12 µM [activator, single point]
O=C(CCCCCCCCCCCCC1CCCC1)Nc1ccc(S(=O)(=O)c2ccc(NC(=O)CCCCCCCCCCCCC3CCCC3)cc2)cc1 |  | inconclusive: 0.501 µM [activator, partial curve, poor fit]
CCc1cc2c(=O)n(Cc3ccco3)c(SCC(=O)NC3CCS(=O)(=O)C3)nc2s1 (configuration not stated) | inactive: -17.2% [at 10 µM] | 
COC(=O)C(C)N(C#N)c1nc(C)nc(C)n1 (configuration not stated) |  | inconclusive: 20 µM [activator, single point]
CCN(CC)CCN(C)C(=O)CCc1nnc(-c2ccc(C)s2)o1 |  | inconclusive: 0.708 µM [activator, single point]
N#Cc1ccc(Oc2ccc(-c3cnc4ccccc4n3)cc2)cc1C#N | inactive: 19% [at 10 µM] | 
CCOC(=O)C1CCCN(C(=O)c2ccco2)C1 (configuration not stated) | inactive: -36.5% | 
COc1cccc2c(SCC(=O)N/N=C/c3ccccc3)cc(C)nc12 |  | inconclusive: 1 µM [activator, single point]
CCN(CC)S(=O)(=O)c1ccc(C(=O)OCC(=O)NCCN2C(=O)CSC2=O)cc1 |  | inconclusive: 0.794 µM [activator, partial curve]
CCCCC[C@H](O)/C=C/[C@@H]1[C@@H](C/C=C\CCCC(=O)O)[C@H](O)C[C@H]1O |  | inconclusive: 6.31 µM [activator, single point]
COc1ccc(-n2c(SCC(=O)NCc3cccs3)nc3[nH]ncc3c2=O)cc1 |  | inconclusive: 0.631 µM [activator, full curve, poor fit]
CN(C)S(=O)(=O)c1cccc(-c2nnc(SCc3ccc4c(c3)OCCO4)o2)c1 | inactive: -9.91% [at 10 µM] | 
COc1cc(S(=O)(=O)N2CCC(c3nc4ccccc4s3)CC2)ccc1S(=O)(=O)N1CC(C)CC(C)C1 (configuration not stated) | inactive: 4.09% [at 10 µM] | 
COc1ccc(S(=O)(=O)NC(N)=NCCc2ccc(OC)c(OC)c2)cc1 |  | inconclusive: 1 µM [activator, partial curve]
CCOC(=O)C1CCCN(CC(O)COCc2ccc3c(c2)OCO3)C1 (configuration not stated) |  | inconclusive: 0.794 µM [activator, single point]

SMILES | cytoprotection (ATP increase) | Potency
CC(=O)N(C[C@@H](O)CO)c1c(I)c(C(=O)NC[C@@H](O)CO)c(I)c(C(=O)NC[C@@H](O)CO)c1I |  | inconclusive: 1.78 µM [activator, single point]
COC(C(C)/C=C/CC(=O)OCCCc1ccccc1)C1CCCCC1 (configuration not stated) |  | inconclusive: 1 µM [activator, partial curve]
CN(C)c1c2ccccc2nc2c(F)c(F)c(F)c(F)c12 |  | inconclusive: 35.5 µM [activator, single point]
O=C(Nc1cccc(-c2cc3ccccc3oc2=O)c1)c1ccc(Br)o1 |  | inconclusive: 4.47 µM [activator, single point]
Cc1ccc(S(=O)(=O)N2CCN(C(=O)c3ccccc3)C2)cc1[N+](=O)[O-] |  | inconclusive: 0.0071 µM [activator, full curve, poor fit]
O=C(Cc1cc(=O)[nH][nH]1)N/N=C/c1c(F)cccc1Cl |  | inconclusive: 0.1 µM [activator, partial curve, poor fit]
CCCCn1c(NS(=O)(=O)c2ccc(C)cc2)c(S(=O)(=O)c2ccccc2)c2nc3ccccc3nc21 | inactive: -13% [at 10 µM] | 
CO[C@H]1[C@@H](OC(N)=O)[C@H](O)[C@@H](Oc2ccc3c(O)c(NC(=O)c4ccc(O)c(CC=C(C)C)c4)c(=O)oc3c2C)OC1(C)C |  | inconclusive: 0.0501 µM [activator, full curve, poor fit]
CC(O)CN(C)C (configuration not stated) |  | inconclusive: 3.98 µM [activator, full curve]
CN(Cc1cc([N+](=O)[O-])c2cccnc2c1O)C1CCCCC1 |  | inconclusive: 3.16 µM [activator, partial curve]
CCCc1cc(C(=O)OC)c(NC(=O)c2cc(C)on2)s1 |  | inconclusive: 0.126 µM [activator, partial curve, poor fit]
Cc1nonc1CC(=O)N1CCc2c([nH]c3ccccc23)C1c1ccccc1F (configuration not stated) |  | inconclusive: 5.62 µM [activator, single point]
C/C(=N/N1CCN(Cc2cccc3ccccc23)CC1)c1cccnc1 |  | inconclusive: 4.47 µM [activator, full curve, poor fit]
COc1ccc(-c2[nH]ncc2CNCCCSC)cc1F |  | inconclusive: 5.62 µM [activator, single point]
CCCCC(=O)Nc1ccc(S(=O)(=O)Nc2nccc(C)n2)cc1 |  | inconclusive: 0.501 µM [activator, full curve, poor fit]
CNC(=O)N(O)C1N(NC(=O)Nc2cccc3ccccc23)C(=S)SC1(C)C (configuration not stated) |  | inconclusive: 0.708 µM [activator, single point]
Cc1c(Cl)c(-c2n[nH]c(=S)n2-c2ccc(F)cc2)nn1C | inactive: 12.3% | 
O=C(Cc1c(Cl)cccc1Cl)Nc1cccc(S(=O)(=O)N2CCOCC2)c1 |  | inconclusive: 0.447 µM [activator, single point]
COc1ccc2[nH]c(S(=O)Cc3ncc(C)c(OC)c3C)nc2n1 (configuration not stated) |  | inconclusive: 15.8 µM [activator, full curve, poor fit]
C=C(C)C(=O)Oc1ccc(N2C(=O)CCC2=O)cc1 |  | inconclusive: 5.62 µM [activator, single point]
Nc1nc(N)nc(-c2cc(Cl)ccc2Cl)n1 |  | active: 7.94 µM

A draw from above in order of molar mass, low to high.
SMILES | cytoprotection (ATP increase) | Potency
COc1ccc(-c2[nH]ncc2CNCCCSC)cc1F |  | inconclusive: 5.62 µM [activator, single point]
CN(Cc1cc([N+](=O)[O-])c2cccnc2c1O)C1CCCCC1 |  | inconclusive: 3.16 µM [activator, partial curve]
Cc1ccc(S(=O)(=O)N2CCN(C(=O)c3ccccc3)C2)cc1[N+](=O)[O-] |  | inconclusive: 0.0071 µM [activator, full curve, poor fit]
O=C(Cc1c(Cl)cccc1Cl)Nc1cccc(S(=O)(=O)N2CCOCC2)c1 |  | inconclusive: 0.447 µM [activator, single point]
CCCCn1c(NS(=O)(=O)c2ccc(C)cc2)c(S(=O)(=O)c2ccccc2)c2nc3ccccc3nc21 | inactive: -13% [at 10 µM] | 

Going on with the list.

SMILES | cytoprotection (ATP increase) | Potency
CCOC(=O)N1CCN(CC(O)COc2ccc(OC)cc2C(C)(C)C)CC1 (configuration not stated) |  | inconclusive: 0.0891 µM [activator, partial curve, poor fit]
NC(=NCCc1ccccc1)NS(=O)(=O)c1cccs1 |  | inconclusive: 2.82 µM [activator, partial curve]
O=C(CSc1nnc(C2COc3ccccc3O2)o1)Nc1ccc(F)cc1Cl (configuration not stated) | inactive: 14.1% [at 10 µM] | 
CCN(CC)S(=O)(=O)c1cc(C(=O)N(C)CC(=O)Nc2ccc(Cl)cc2)ccc1Cl |  | inconclusive: 0.708 µM [activator, single point]
Nc1nc2c(c(=O)[nH]1)C(c1cccc3ccccc13)C1=C(N2)c2ccccc2C1=O (configuration not stated) | inactive: -65.5% | 
COc1cc2c(-c3ccc(O)cc3)nc3c(c(C)nn3-c3ccccc3)c2cc1OC |  | inconclusive: 4.47 µM [activator, single point]
Cc1ccc(C(=O)CNc2cccc(Cl)c2)cc1 |  | inconclusive: 0.112 µM [activator, full curve, poor fit]
COc1ccc(Nc2nc(N3CCCC3)nc3ccccc23)c(OC)c1 | inactive: -87.2% [at 0.074 µM] | 
CCCCOc1ccc(OCCCN2CCOCC2)cc1 |  | inconclusive: 0.0562 µM [activator, full curve, poor fit]
COC(=O)CC1C(=O)NCCN1C(=O)CSc1nc2ccc([N+](=O)[O-])cc2s1 (configuration not stated) |  | inconclusive: 11.2 µM [activator, single point]
CCn1c(N)c(C(=O)NCc2ccc3c(c2)OCO3)sc1=S | inactive: -12.6% [at 0.074 µM] | 
S=C(Nc1cccc(Cl)c1)NC1CC2CCCC(C1)N2C1CCCC1 (configuration not stated) |  | inconclusive: 0.1 µM [activator, full curve, poor fit]
N#C/C(=C\C1=C(N2CCOCC2)C(=C/c2cccc([N+](=O)[O-])c2)/CC1)C(=O)Nc1ccccc1F | inactive: 22.9% [at 10 µM] | 
COc1ccc(/C=C(/NC(=O)c2ccc(OC)cc2)C(=O)NCCc2c[nH]c3ccccc23)cc1 |  | inconclusive: 1.12 µM [activator, single point]
CCCCN1C(=O)NC(NC(=O)C2CC2)(C(F)(F)F)C1=O (configuration not stated) |  | inconclusive: 0.562 µM [activator, single point]
Cc1cc(C)nc(Nc2nc3ccccc3[nH]2)n1 | inactive: -9.36% | 
COc1ccc(C(=O)NC(=S)Nc2cccc(NC(=O)c3ccco3)c2)cc1[N+](=O)[O-] | inactive: -4.68% [at 10 µM] | 
O=C(CC1C(=O)NCCN1Cc1cccc(Oc2ccccc2)c1)NCCc1ccncc1 (configuration not stated) | inactive: 25.1% [at 10 µM] | 
COc1ccc(C(=O)c2sc3nc(-c4ccccc4)ccc3c2N)cc1 |  | inconclusive: 5.62 µM [activator, single point]
COc1ccc(C(=O)NCc2nnc(SCC(=O)NO)n2Cc2ccccc2)cc1 |  | inconclusive: 0.631 µM [activator, single point]
